Source: the supplement of paper PMC10331698
± gives the standard deviation of the averaged measurements. Most values lie at the level of the controls, where differences are scatter.

Tests used:
Experiment in all cases: level (log10 ratio to DMSO vehicle control); higher = higher biomarker level / cell amount than vehicle control
[1] = compound: C=CC(=O)OCC(F)(F)C(F)(F)C(F)(F)C(F)(F)COC(=O)C=C [1H,1H,6H,6H-Perfluorohexane-1,6-diol diacrylate]; conditions: 2200 nM; in DMSO
Description: (§1)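 BioMAP Diversity Plus panel of 12 human primary cell co-culture systems (3C, 4H, LPS, SAg, BT, BF4T, BE3C, CASM3C, HDF3CGF, KF3CT, MyoF, Mphg). Compounds were added 1 h before stimulation and left for 24 h (MyoF 48 h; BT 72 h for soluble read-outs or 6 d for IgG). Biomarkers were read by ELISA, cytotoxicity by SRB, PBMC viability and proliferation by Alamar Blue. Each well value was divided by the mean of 8 DMSO control wells on the same plate and log10 transformed; duplicate blinded samples were tested at 4 concentrations.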

[2] = compound: O=C(O)C(F)(F)OC(F)(F)C(F)(F)OC(F)(F)C(=O)O [Perfluoro-3,6-dioxaoctane-1,8-dioic acid]; conditions: 2200 nM; in DMSO
Description: as §1

[3] = compound: O=C(O)C(F)(F)C(F)(F)OC(F)(F)F [Perfluoro-3-methoxypropanoic acid]; conditions: 2200 nM; in DMSO
Description: as §1

[4] = compound: O=C(O)C(F)(F)OC(F)(F)C(F)(F)OC(F)(F)C(F)(F)C(F)(F)C(F)(F)F [Perfluoro-3,6-dioxadecanoic acid]; conditions: 2200 nM; in DMSO
Description: as §1

Perfluorobutanoic acid = compound: O=C(O)C(F)(F)C(F)(F)C(F)(F)F [Perfluorobutanoic acid]; conditions: 2200 nM; in DMSO
Description: as §1

Perfluorooctanamide = compound: NC(=O)C(F)(F)C(F)(F)C(F)(F)C(F)(F)C(F)(F)C(F)(F)C(F)(F)F [Perfluorooctanamide]; conditions: 2200 nM; in DMSO
Description: as §1

[5] = compound: O=C(O)C=CC(F)(C(F)(F)F)C(F)(F)F [3-(Perfluoroisopropyl)-2-propenoic acid]; conditions: in DMSO
Description: as §1

[6] = compound: O=C(O)C(F)(F)C(F)(F)C(F)(F)C(F)(F)C(F)(F)C(F)(F)C(F)(F)C(F)F [9-H-Perfluorononanoic acid]; conditions: 2200 nM; in DMSO
Description: as §1

Perfluoropropanoic acid = compound: O=C(O)C(F)(F)C(F)(F)F [Perfluoropropanoic acid]; conditions: 2200 nM; in DMSO
Description: as §1

[7] = compound: FC(F)(F)C(F)(F)C(F)(F)C(F)(F)C(F)(F)C(F)(F)C(F)(F)CCI [1-Iodo-1H,1H,2H,2H-perfluorononane]; conditions: in DMSO
Description: as §1

[8] = compound: OCCC(F)(F)C(F)(F)C(F)(F)C(F)(F)C(F)(F)C(F)(F)C(F)(F)C(F)(F)F [8:2 Fluorotelomer alcohol]; conditions: 2200 nM; in DMSO
Description: as §1

[9] = compound: FC(F)C(F)(F)COCC1CO1 [((2,2,3,3-Tetrafluoropropoxy)methyl)oxirane]; conditions: 2200 nM; in DMSO
Description: as §1

Perfluoroundecanoic acid = compound: O=C(O)C(F)(F)C(F)(F)C(F)(F)C(F)(F)C(F)(F)C(F)(F)C(F)(F)C(F)(F)C(F)(F)C(F)(F)F [Perfluoroundecanoic acid]; conditions: in DMSO
Description: as §1

[10] = compound: OCC(F)(F)C(F)(F)C(F)(F)C(F)(F)C(F)(F)C(F)(F)C(F)(F)C(F)(F)C(F)(F)C(F)(F)C(F)(F)F [11:1 Fluorotelomer alcohol]; conditions: in DMSO
Description: as §1

[11] = compound: O=S(=O)(Cl)C(F)(F)C(F)(F)C(F)(F)C(F)(F)C(F)(F)C(F)(F)C(F)(F)C(F)(F)F [Perfluoro-1-octanesulfonyl chloride]; conditions: 2200 nM; in DMSO
Description: as §1

[12] = compound: C=C(C)C(=O)OCC(F)(F)C(F)(F)C(F)(F)F [2,2,3,3,4,4,4-Heptafluorobutyl methacrylate]; conditions: 2200 nM; in DMSO
Description: as §1

[13] = compound: FC(F)(F)C(F)(F)C(F)(F)C(F)(F)C(F)(F)C(F)(F)C(F)(F)I [1-Iodopentadecafluoroheptane]; conditions: in DMSO
Description: as §1

[14] = compound: O=P(O)(O)CCC(F)(F)C(F)(F)C(F)(F)C(F)(F)C(F)(F)C(F)(F)C(F)(F)C(F)(F)F [((Perfluorooctyl)ethyl)phosphonic acid]; conditions: 2200 nM; in DMSO
Description: as §1

| Test System | level (log10) [1] | level (log10) [2] | level (log10) [3] | level (log10) [4] | level (log10) (Perfluorobutanoic acid) | level (log10) (Perfluorooctanamide) | level (log10) ([5]; 2200 nM) | level (log10) ([5]; 6700 nM) | level (log10) ([5]; 20000 nM) | level (log10) ([5]; 60000 nM) | level (log10) [6] | level (log10) (Perfluoropropanoic acid) | level (log10) ([7]; 740 nM) | level (log10) ([7]; 2200 nM) | level (log10) ([7]; 6700 nM) | level (log10) ([7]; 20000 nM) | level (log10) [8] | level (log10) [9] | level (log10) (Perfluoroundecanoic acid; 740 nM) | level (log10) (Perfluoroundecanoic acid; 2200 nM) | level (log10) ([10]; 370 nM) | level (log10) ([10]; 1100 nM) | level (log10) ([10]; 3300 nM) | level (log10) ([10]; 10000 nM) | level (log10) [11] | level (log10) [12] | level (log10) ([13]; 740 nM) | level (log10) ([13]; 2200 nM) | level (log10) ([13]; 6700 nM) | level (log10) ([13]; 20000 nM) | level (log10) [14] |
| --- | --- | --- | --- | --- | --- | --- | --- | --- | --- | --- | --- | --- | --- | --- | --- | --- | --- | --- | --- | --- | --- | --- | --- | --- | --- | --- | --- | --- | --- | --- | --- |
| KF3CT:TIMP-2 | -0.019 ± 0.011 | -0.011 | -0.005 ± 0.014 | -0.0345 ± 0.0021 | 0.0015 ± 0.015 | 0.0125 ± 0.013 | 0.007 ± 0.0085 | -0.01 ± 0.013 | 0.007 ± 0.031 | 0.0205 ± 0.023 | -0.0135 ± 0.033 | -0.012 ± 0.044 | -0.001 ± 0.037 | -0.009 ± 0.0071 | 0.0145 ± 0.03 | -0.0035 ± 0.0064 | -0.01 ± 0.024 | 0.004 ± 0.03 | -0.0405 ± 0.011 | -0.011 ± 0.0071 | 0.005 ± 0.0014 | -0.014 ± 0.0028 | -0.0405 ± 0.013 | 0.002 ± 0.016 | -0.006 ± 0.0014 | -0.0105 ± 0.015 | -0.0235 ± 0.013 | -0.0285 ± 0.0064 | -0.009 ± 0.021 | -0.0225 ± 0.00071 | 0.0125 ± 0.012 |
| LPS:CD62E/E-Selectin | 0.0145 ± 0.00071 | 0.0015 ± 0.0092 | -0.0065 ± 0.019 | 0.018 ± 0.014 | -0.0015 ± 0.013 | 0.0085 ± 0.0064 | 0.0005 ± 0.039 | 0.0055 ± 0.015 | -0.013 ± 0.0042 | 0.0165 ± 0.0035 | -0.004 ± 0.05 | -0.0085 ± 0.005 | 0.025 ± 0.021 | 0.026 ± 0.0014 | -0.003 ± 0.027 | -0.0175 ± 0.057 | 0.004 ± 0.045 | 0.0275 ± 0.00071 | 0.005 ± 0.023 | -0.0425 ± 0.022 | 0.02 ± 0.0071 | 0.016 ± 0.0085 | 0.01 ± 0.0099 | 0.015 ± 0.014 | -0.0085 ± 0.035 | 0.0105 ± 0.0064 | -0.0365 ± 0.0064 | -0.036 ± 0.02 | -0.0155 ± 0.005 | -0.002 ± 0.0071 | 0.014 ± 0.021 |
| 4H:CCL26/Eotaxin-3 | -0.0165 ± 0.021 | -0.014 ± 0.013 | -0.0095 ± 0.037 | 0.026 ± 0.023 | -0.024 ± 0.014 | 0.002 ± 0.021 | -0.005 ± 0.027 | -0.011 ± 0.0014 | -0.011 ± 0.0014 | 0.016 ± 0.0085 | 0.0145 ± 0.029 | -0.004 ± 0.0014 | 0.0345 ± 0.012 | -0.003 ± 0.027 | 0.018 ± 0.0057 | -0.004 ± 0.028 | 0.0485 ± 0.079 | 0.035 ± 0.024 | -0.006 ± 0.048 | -0.0115 ± 0.04 | 0.0105 ± 0.0064 | 0.0025 ± 0.0035 | -0.0055 ± 0.0092 | -0.0085 ± 0.0078 | 0.0235 ± 0.076 | -0.0075 ± 0.018 | 0.022 ± 0.023 | 0.0305 ± 0.026 | 0.0365 ± 0.016 | 0.032 ± 0.027 | 0.015 ± 0.021 |
| 4H:SRB | 0.009 ± 0.0042 | -0.004 ± 0.011 | -0.0035 ± 0.013 | -0.0175 ± 0.011 | -0.019 ± 0.013 | 0.0005 ± 0.013 | -0.001 ± 0.0028 | 0.001 ± 0.018 | -0.0045 ± 0.029 | 0.004 ± 0.021 | 0.016 ± 0.0071 | 0.004 ± 0.0057 | 0.018 ± 0.024 | 0.0115 ± 0.0078 | 0.0165 ± 0.0092 | 0.024 ± 0.024 | -0.018 ± 0.0014 | 0.0015 ± 0.015 | 0.0035 ± 0.0078 | 0 ± 0.0042 | 0.0045 ± 0.013 | -0.0105 ± 0.0092 | -0.0195 ± 0.0035 | -0.0005 ± 0.025 | 0.0005 ± 0.00071 | 0.0015 ± 0.019 | 0.0065 ± 0.011 | 0.005 ± 0.0057 | 0.0015 ± 0.0092 | 0.0125 ± 0.005 | -0.0235 ± 0.0064 |
